PubChem BioAssay AID1671195 – Yale University, 2021

Aim: 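Genes whose knockdown alters LDL uptake in liver cancer cells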 (primary screen)
Cell system: human Huh7 hepatoma cells
Reagent: siRNA pool against human genes, 18 nM
Duration: about 2 to 2.5 days of knockdown, then 8 h LDL uptake
Challenge: DiI-labelled LDL at 30 µg/ml for 8 h, in lipoprotein-deficient serum medium
Read-out: 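Per-cell DiI-LDL intensity by automated imaging; well means scaled to the plate median and given as a robust z-score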
Direction: robust z-score: higher = more LDL uptake after knockdown
Rule for the call: 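Active when two or more replicates show a robust z-score above 2 or below -2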
In all, the deposit lists about 22,000 reagents; shown is a part drawn at random. About 1,510 of all reagents (6.9%) were called active. 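Active includes knockdowns raising or lowering LDL uptake; positive z-scores mean more uptake, negative mean less.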 The numbers tell different reagents against one gene apart.

The first 6 entries as a preview:
target | reagent | robust z-score, replicate 1 | robust z-score, replicate 2 | robust z-score, replicate 3 | Outcome
LIPT1 (GeneID 51601) | 1 | -0.0352 | -0.177 | 0.104 | inactive
CXCL5 (GeneID 6374) | 1 | 0.622 | -0.737 | -0.0161 | inactive
COL11A2 (GeneID 1302) | 1 | -0.638 | -0.914 | -1.17 | inactive
DERA (GeneID 51071) | 1 | -2.14 | -1.25 | -2.26 | active
CAV2 (GeneID 858) | 1 | 0.652 | 0.823 | 0.717 | inactive
TNN (GeneID 63923) | 1 | -1.83 | -1.4 | -1.35 | inactive

The list itself, repeating the preview:
target | reagent | robust z-score, replicate 1 | robust z-score, replicate 2 | robust z-score, replicate 3 | Outcome
LIPT1 (GeneID 51601) | 1 | -0.0352 | -0.177 | 0.104 | inactive
CXCL5 (GeneID 6374) | 1 | 0.622 | -0.737 | -0.0161 | inactive
COL11A2 (GeneID 1302) | 1 | -0.638 | -0.914 | -1.17 | inactive
DERA (GeneID 51071) | 1 | -2.14 | -1.25 | -2.26 | active
CAV2 (GeneID 858) | 1 | 0.652 | 0.823 | 0.717 | inactive
TNN (GeneID 63923) | 1 | -1.83 | -1.4 | -1.35 | inactive
COX14 (GeneID 84987) | 1 | 0.655 | 0.289 | 0.873 | inactive
APOBEC3D (GeneID 140564) | 1 | -0.615 | -0.652 | -0.255 | inactive
SRR (GeneID 63826) | 1 | 1.3 | 2.01 | 0.843 | inactive
FIGNL1 (GeneID 63979) | 1 | 1.33 | 2.54 | 1.69 | inactive
TRANK1 (GeneID 9881) | 1 | -0.489 | 1.12 | 1.69 | inactive
PLA2G4E (GeneID 123745) | 1 | 0.487 | -0.0738 | 0.598 | inactive
PLA2G4E (GeneID 123745) | 2 | 0.0431 | -0.0496 | 0.431 | inactive
CDC37L1 (GeneID 55664) | 1 | 0.417 | 0.00451 | 0.21 | inactive
ZNF33B (GeneID 7582) | 1 | -0.794 | -0.532 | -0.815 | inactive
ADM2 (GeneID 79924) | 1 | -1.15 | -0.809 | -1.33 | inactive
ADH4 (GeneID 127) | 1 | -0.194 | -0.351 | -0.783 | inactive
GPC5 (GeneID 2262) | 1 | -0.923 | -0.642 | -0.707 | inactive
PRAMEF12 (GeneID 390999) | 1 | -0.615 | -0.866 | -0.802 | inactive
GJC2 (GeneID 57165) | 1 | 1.46 | 1.85 | 0.781 | inactive
IQCF3 (GeneID 401067) | 1 | -1.23 | -1.3 | -1.45 | inactive
NPEPPS (GeneID 9520) | 1 | -1.65 | -0.907 | -1.29 | inactive
OPRL1 (GeneID 4987) | 1 | -0.301 | 0.254 | -0.0228 | inactive
TTC7A (GeneID 57217) | 1 | 0.316 | 0.514 | 0.52 | inactive
CES5A (GeneID 221223) | 1 | 0.0504 | 0.484 | 0.838 | inactive
DCK (GeneID 1633) | 1 | 1.25 | 0.634 | 0.113 | inactive
CERS2 (GeneID 29956) | 1 | -1.37 | 1.5 | -0.186 | inactive
RPL28 (GeneID 6158) | 1 | 1.18 | 0.831 | 1.82 | inactive
GDF7 (GeneID 151449) | 1 | 0.49 | 0.0356 | -0.196 | inactive
ASXL1 (GeneID 171023) | 1 | 0.32 | 0.0724 | 0.159 | inactive
MIR7-3HG (GeneID 284424) | 1 | -1.75 | -1.71 | -1.55 | inactive
H4C4 (GeneID 8360) | 1 | 0.00948 | 0.58 | 0.16 | inactive
EPC2 (GeneID 26122) | 1 | -1.24 | -0.469 | -1.17 | inactive
SLA (GeneID 6503) | 1 | 0.53 | 0.0203 | -0.364 | inactive
ADM5 (GeneID 199800) | 1 | 0.0745 | 0.568 | 0.16 | inactive
STOX2 (GeneID 56977) | 1 | -0.23 | 0.211 | -0.285 | inactive
MDP1 (GeneID 145553) | 1 | -0.306 | -0.512 | 0.283 | inactive
GPC3 (GeneID 2719) | 1 | 0.221 | -0.202 | 1.14 | inactive
JAM2 (GeneID 58494) | 1 | 0.687 | 0.279 | 0.62 | inactive
SALL3 (GeneID 27164) | 1 | 0.818 | 0.263 | 0.34 | inactive
POLR1C (GeneID 9533) | 1 | 0.567 | 0.639 | 0.217 | inactive
ALDH3A2 (GeneID 224) | 1 | -1.35 | -0.799 | -1.87 | inactive
BIRC7 (GeneID 79444) | 1 | -1.11 | -1.36 | -1.52 | inactive
MYORG (GeneID 57462) | 1 | -0.316 | -0.83 | -0.776 | inactive
LRRC9 (GeneID 341883) | 1 | 0.668 | 0.842 | 0.632 | inactive
CREM (GeneID 1390) | 1 | -1 | -1.21 | -1.23 | inactive
LOC338749 (retired record) (GeneID 338749) | 1 | 3.18 | 2.41 | 2.76 | active
HORMAD1 (GeneID 84072) | 1 | 1.46 | 1.95 | 2.22 | inactive
H4C5 (GeneID 8367) | 1 | -1.9 | 0.0447 | -0.867 | inactive
PLAAT2 (GeneID 54979) | 1 | -1.27 | -0.0964 | -0.247 | inactive
CCR2 (GeneID 729230) | 1 | 0.67 | 0.433 | 0.697 | inactive
CROT (GeneID 54677) | 1 | 0.225 | -0.0842 | 0.566 | inactive
RBM47 (GeneID 54502) | 1 | -0.159 | -0.803 | 0.463 | inactive
EIF3FP2 (GeneID 83880) | 1 | -1.56 | -1.35 | -1.46 | inactive
TFB2M (GeneID 64216) | 1 | 2.4 | 2.51 | 2.82 | active
B3GNT5 (GeneID 84002) | 1 | -1.06 | 0.682 | -0.524 | inactive
RBM42 (GeneID 79171) | 1 | -0.943 | -0.559 | -0.68 | inactive
HSALR1 (GeneID 100289580) | 1 | 0.182 | 0.0796 | -0.0325 | inactive
LINC02139 (GeneID 400548) | 1 | 1.74 | 1.66 | 1.14 | inactive
LOC387705 (retired record) (GeneID 387705) | 1 | 0.433 | -0.252 | -0.133 | inactive
CIRBP (GeneID 1153) | 1 | 0.553 | -0.584 | -0.644 | inactive
CR1 (GeneID 1378) | 1 | 0.018 | 0.907 | -1.15 | inactive
ACSBG2 (GeneID 81616) | 1 | 1.73 | 0.0165 | -0.478 | inactive
SF3B4 (GeneID 10262) | 1 | -0.781 | -0.779 | -0.105 | inactive
TMEM79 (GeneID 84283) | 1 | -0.0382 | 0.133 | -0.315 | inactive
LBR (GeneID 3930) | 1 | 1.98 | 1.9 | 2.4 | active
CHDH (GeneID 55349) | 1 | -1.51 | -1.73 | -1.67 | inactive
DECR1 (GeneID 1666) | 1 | -1.54 | -1.21 | -1.77 | inactive
